Structures are written as SMILES. The list does not hold the whole screen: it is rich in T/C values a quarter to a half above the control, in often repeated tests (any T/C) and in doses without a T/C. Other doses and runs of a compound stand elsewhere. T/C: endpoint of the treated group in % of that of the vehicle group. Some entries give survivors of the animals treated and no T/C: the source files T/C as zero there, which appears to mark a toxic dose or a test without result, not a measured value. Some doses without a T/C left all or most animals alive at the check, yet need not have been tolerated: survival well below the control is almost never listed, so the zero probably covers shortened survival too. Counts of survivors are from the toxicity check (mostly the fifth day) where no day follows; animals may have died later. Schedule codes are those of the source, taken here to give the interval after Q, in days (D) or hours (H), and the number of doses after X. Some entries hold several experiments; the values are given in rising order. Where survival is the endpoint, the PubChem record calls one and a half times the control and up active, and a quarter to a half above the control has no call in these data; cut-offs in other NCI protocols can differ. Some T/C values carry the count of animals alive at the toxicity check (mostly the fifth day); without a count, all were alive then.

This assay relates to P388 leukemia ip, CD2F1 mice, survival T/C. The experiment in a line: NCI In Vivo Anticancer Drug Screen. Data for tumor model P388 Leukemia (intraperitoneal) in CD2F1 (CDF1) mice. Particulars: T/C endpoint: median survival time, higher T/C = longer survival.
The mark [1] stands for this setting: dose: 50.0 mg/kg/injection, schedule: Q01DX009 (ip), vehicle: saline.
Where [2] appears, read: dose: 200.0 mg/kg/injection, schedule: Q01DX009 (ip), vehicle: saline.
Setting [3] is: dose: 12.5 mg/kg/injection, schedule: Q01DX009 (ip), vehicle: saline.
[4] abbreviates: dose: 25.0 mg/kg/injection, schedule: Q01DX009 (ip), vehicle: saline.
Setting [5] is: dose: 200.0 mg/kg/injection, schedule: Q01DX009 (ip), vehicle: saline with Tween-80.
[6] abbreviates: dose: 200.0 mg/kg/injection, schedule: Q01DX005 (ip), vehicle: Klucel (hydroxypropylcellulose) (HPC).
The mark [7] stands for this setting: dose: 200.0 mg/kg/injection, schedule: Q04DX003 (ip), vehicle: saline.
Where [8] appears, read: dose: 400.0 mg/kg/injection, schedule: Q04DX003 (ip), vehicle: saline.
Where [9] appears, read: dose: 200.0 mg/kg/injection, schedule: Q01DX005 (ip), vehicle: saline with Tween-80.

With `CCOC(=O)CN=C(c1ccccc1)c1ccccc1`, the survivor count was 6 of 6 under setting [1] and 6 of 6 under setting [2].
For the compound `COc1ccc(C2C(C(=O)NCc3ccccc3)=C(C)NC(C)=C2C(=O)NCc2ccccc2)cc1OC`, the survivor count is 6 of 6 (dose: 120.0 mg/kg/injection, schedule: Q01DX005 (ip), vehicle: Klucel (hydroxypropylcellulose) (HPC)) and 6 of 6 (dose: 240.0 mg/kg/injection, schedule: Q01DX005 (ip), vehicle: Klucel (hydroxypropylcellulose) (HPC)).
With `O=c1[nH]c2c(ccc3cnccc32)c2c1CCC2`, the T/C was 125 % of control under setting [3]; 126 and 136 % of control under setting [4]; 140 % of control under setting [1]. Moreover, the survivor count is, setting by setting: (dose: 60.0 mg/kg/injection, schedule: Q01DX009 (ip), vehicle: saline) 6 of 6; (dose: 120.0 mg/kg/injection, schedule: Q01DX009 (ip), vehicle: saline) 3 of 6; (dose: 240.0 mg/kg/injection, schedule: Q01DX009 (ip), vehicle: saline) 1 of 6.
As to `C[n+]1c2n(c3ccccc31)CCn1c-2[n+](C)c2ccccc21`, the survivor count (dose: 100.0 mg/kg/injection, schedule: Q01DX009 (ip), vehicle: Klucel (hydroxypropylcellulose) (HPC)) was 2 of 6.
With `CN(C)S(=O)(=O)c1ccccc1N=C=S`, the survivor count under setting [5] is 2 of 6.
On to `CCOc1ccc(Nc2ccc(/C(=C3\C=CC(=[N+](CC)Cc4cccc(S(=O)(=O)O)c4)C=C3C)c3ccc(N(CC)Cc4cccc(S(=O)(=O)O)c4)cc3C)cc2)cc1`, for which the survivor count under setting [5] is given as 2 of 6.
Turning to `Nc1nc2ccccc2[nH]1`, the survivor count reads like this: (dose: 320.0 mg/kg/injection, schedule: Q04DX003 (ip), vehicle: other) 0 of 10; (dose: 320.0 mg/kg/injection, schedule: Q04DX003 (oral), vehicle: other) 6 of 10; (dose: 640.0 mg/kg/injection, schedule: Q04DX003 (ip), vehicle: other) 0 of 10; (dose: 640.0 mg/kg/injection, schedule: Q04DX003 (oral), vehicle: other) 0 of 10.
Take `CC(=O)C(=N/O)/C(C)=N/NC(=O)CC#N`: where the note is “dose: 400.0 mg/kg/injection, schedule: Q04DX009 (ip), vehicle: saline”, the survivor count is on record as 6 of 6.
As to `CCCCN(CCCC)C1CCC(Nc2ccnc3cc(Cl)ccc23)CC1` (stereo not drawn), the survivor count under setting [6] is on record as 6 of 6.
On to `CC(C)N1CCOCC1`, for which the survivor count under setting [2] was 0 of 6.
On to `O=C(O)c1cc(Br)cc(Br)c1O.O=C(O)c1cc(Br)cc(Br)c1O.[Cu]`, for which the survivor count is listed as 1 of 6 (dose: 120.0 mg/kg/injection, schedule: Q01DX005 (ip), vehicle: saline with Tween-80) and 0 of 6 (dose: 240.0 mg/kg/injection, schedule: Q01DX005 (ip), vehicle: saline with Tween-80).
For `CC(C)([NH-])CO.CC(C)([NH-])CO.[Cl][Cd][Cl]`, under setting [3], the survivor count is reported as 6 of 6.
As for `O=NN(CCF)C(=O)Oc1ccc([N+](=O)[O-])cc1`, the survivor count is 0 of 6 (dose: 50.0 mg/kg/injection, schedule: Q01DX001 (ip), vehicle: Klucel (hydroxypropylcellulose) (HPC)) and 0 of 6 (dose: 100.0 mg/kg/injection, schedule: Q01DX001 (ip), vehicle: Klucel (hydroxypropylcellulose) (HPC)).
Consider `COc1cc(C(=O)C(CN(C)C)CN(C)C)cc(OC)c1OC`, for which the survivor count is, setting by setting: (dose: 100.0 mg/kg/injection, schedule: Q01DX005 (ip), vehicle: saline) 0 of 5; (dose: 200.0 mg/kg/injection, schedule: Q01DX005 (ip), vehicle: saline) 0 of 5.
For `Cc1ccnc(NN=O)c1`, the T/C runs as follows: (dose: 6.25 mg/kg/injection, schedule: Q01DX009 (ip), vehicle: water) 134 % of control; (dose: 12.5 mg/kg/injection, schedule: Q01DX009 (ip), vehicle: water) 137 % of control. The survivor count (dose: 25.0 mg/kg/injection, schedule: Q01DX009 (ip), vehicle: water) is 5 of 6 and 5 of 5.
For `CCCCCCCCC(C)C(=O)N1CCCC1C(=O)N1C(CC(=O)CC)CC(C)CC1C(=O)NC(C)C(=O)NC(C)(C)C(=O)NC(C)(C)C(=O)NC(C(=O)NC(C)C(=O)NC(C)(C)C(=O)NC(C)(C)C(=O)NC(C)CN(C)CCO)C(C)CC` (stereo not drawn), the T/C runs as follows: (dose: 0.15 mg/kg/injection, schedule: Q01DX009 (ip), vehicle: Klucel (hydroxypropylcellulose) (HPC)) 126 % of control; (dose: 0.31 mg/kg/injection, schedule: Q01DX009 (ip), vehicle: Klucel (hydroxypropylcellulose) (HPC)) 128 % of control; (dose: 0.62 mg/kg/injection, schedule: Q01DX009 (ip), vehicle: Klucel (hydroxypropylcellulose) (HPC)) 142 % of control; (dose: 1.25 mg/kg/injection, schedule: Q01DX009 (ip), vehicle: Klucel (hydroxypropylcellulose) (HPC)) 125 % of control. The survivor count (dose: 5.0 mg/kg/injection, schedule: Q01DX009 (ip), vehicle: Klucel (hydroxypropylcellulose) (HPC)) was 0 of 6.
On to `CN(C)CCCOC1=Nc2ccccc2O/C1=C/c1ccccc1`, for which the survivor count is on record as 4 of 6 under setting [7] and 0 of 6 under setting [8].
With `CC1(C)O[Se](=O)OC1(C)C`, the survivor count is, setting by setting: (dose: 100.0 mg/kg/injection, schedule: Q04DX003 (ip), vehicle: saline) 0 of 6; under setting [7], 0 of 6; under setting [8], 0 of 6.
On to `O=[N+]([O-])c1ccc(/C=C/[P+](c2ccccc2)(c2ccccc2)c2ccccc2)o1`, for which the survivor count by setting is: (dose: 6.25 mg/kg/injection, schedule: Q01DX009 (ip), vehicle: saline) 3 of 6; under setting [3], 5 of 6; under setting [4], 0 of 6; (dose: 50.0 mg/kg/injection, schedule: Q01DX009 (ip), vehicle: suspension in saline) 1 of 6; (dose: 100.0 mg/kg/injection, schedule: Q01DX009 (ip), vehicle: suspension in saline) 0 of 6; (dose: 200.0 mg/kg/injection, schedule: Q01DX009 (ip), vehicle: suspension in saline) 0 of 6.
Take `NC(=S)c1cccc(OCCCOc2ccccc2)c1`: the survivor count under setting [6] is listed as 3 of 5.
As to `C[N+](C)(C)CCC(=O)c1ccc(Cl)c(Cl)c1`, the survivor count (dose: 50.0 mg/kg/injection, schedule: Q01DX009 (ip), vehicle: saline with Tween-80) was 0 of 6; the survivor count (dose: 100.0 mg/kg/injection, schedule: Q01DX009 (ip), vehicle: saline with Tween-80) was 0 of 6; the survivor count under setting [5] is reported as 0 of 6.
For `CCCCOc1cccc2c(NCCNc3c4ccccc4nc4c(OCCCC)cccc34)c3ccccc3nc12`, the survivor count (dose: 20.0 mg/kg/injection, schedule: Q01DX009 (ip), vehicle: other) was 2 of 6.
For the compound `Cc1ccc2c(c1)[C@]1(C)O[C@@H](C=C[C@@H]1O)O2`, the survivor count (dose: 400.0 mg/kg/injection, schedule: Q01DX001 (ip), vehicle: Klucel (hydroxypropylcellulose) (HPC)) is 0 of 6.
In the case of `C(CCc1nn[nH]n1)CCC1CCCCC1`, the survivor count under setting [9] was 3 of 5.
Regarding `CCOC(=O)C1=C(C)NC(=O)NC1c1coc2cc(C)cc(C)c2c1=O` (stereo not drawn), the survivor count reads like this: (dose: 100.0 mg/kg/injection, schedule: Q01DX005 (ip), vehicle: Klucel (hydroxypropylcellulose) (HPC)) 2 of 6; under setting [6], 0 of 6.
As to `Nc1ncnc2c1cnn2C1OC(CO)C(O)C1O` (stereo not drawn), the T/C by setting is: under setting [3], 127 % of control; under setting [4], 133 % of control; under setting [1], 129 % of control [5 of 6 alive].
With `CC(=O)/C(=C\c1ccccc1)C(=O)CCN(C)C`, the T/C runs as follows: (dose: 50.0 mg/kg/injection, schedule: Q01DX005 (ip), vehicle: saline with Tween-80) 125 % of control; (dose: 100.0 mg/kg/injection, schedule: Q01DX005 (ip), vehicle: saline with Tween-80) 125 and 129 % of control. For the same compound, the survivor count under setting [9] was 0 of 5 and 1 of 5.
As for `CC[n+]1ccc(/C=C\c2c(Cl)cccc2Cl)cc1`, under setting [1], the survivor count was 4 of 6.
In the case of `Cc1ccc(N)c2ccccc12`, the survivor count under setting [2] is listed as 3 of 6.

The values are drawn from PubChem BioAssay AID330 (DTP/NCI, 2004).
